The supplement of paper PMC9578143, “Small-Molecule Ebselen Binds to YTHDF Proteins Interfering with the Recognition of N^6-Methyladenosine-Modified RNAs” (ACS Pharmacology & Translational Science, 2022)
The other results are listed elsewhere or left out. Part of the spread comes from offsets between plates or batches.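 Hits were defined as a z-score below −3.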

Molecular target: T1, YTHDF1 YTH domain (aa 365-554) (UniProt Q9BYJ9)
T1 sequence (whole entry): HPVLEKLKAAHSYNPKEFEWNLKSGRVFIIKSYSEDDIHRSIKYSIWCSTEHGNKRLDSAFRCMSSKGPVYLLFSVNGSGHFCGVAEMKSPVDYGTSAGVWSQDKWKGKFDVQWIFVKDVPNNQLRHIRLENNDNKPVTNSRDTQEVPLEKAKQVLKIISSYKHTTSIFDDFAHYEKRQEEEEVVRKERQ
Assay: tryptophan fluorescence intensity z-score (mean); higher = higher fluorescence, less quenching (negative = binding / quenching)
Conditions: 10 µM

SMILES	tryptophan fluorescence intensity z-score
NC(=O)C1(N2CCCCC2)CCN(CCCC(=O)c2ccc(F)cc2)CC1 (plate: M 11-12)	inactive: -0.801
CNC1(C)C2CCC(C2)C1(C)C (stereo not drawn) (plate: M 3-4)	inactive: 0.0356
CCCCCCCCCCCCCCCC[N+](C)(C)C (plate: M 7-8)	inactive: -0.43
CCCc1nc(C(C)(C)O)c(C(=O)OCc2oc(=O)oc2C)n1Cc1ccc(-c2ccccc2-c2nnn[nH]2)cc1 (plate: M 9-10)	inactive: -0.233
Cn1c(=O)c2c(ncn2CC(O)CO)n(C)c1=O (stereo not drawn) (plate: M 3-4)	inactive: -0.171
NC(=O)c1cccnc1 (plate: M 11-12)	inactive: 0.251
C[C@@H]1CC2C3C[C@H](F)C4=CC(=O)C=C[C@]4(C)[C@@]3(F)[C@@H](O)C[C@]2(C)[C@@]1(O)C(=O)COC(=O)C(C)(C)C (stereo partly drawn) (plate: M 3-4)	inactive: -0.388
C=C(NC(=O)C(=C)NC(=O)c1csc(C2=N[C@@H]3c4csc(n4)[C@H]4NC(=O)c5csc(n5)[C@H]([C@](C)(O)[C@@H](C)O)NC(=O)[C@H]5CSC(=N5)/C(=C/C)NC(=O)[C@H]([C@@H](C)O)NC(=O)c5csc(n5)[C@]3(CC2)NC(=O)[C@H](C)NC(=O)C(=C)NC(=O)[C@H](C)NC(=O)[C@H]([C@@H](C)CC)N[C@@H]2C=Cc3c([C@H](C)O)cc(nc3[C@H]2O)C(=O)O[C@@H]4C)n1)C(N)=O (plate: M 9-10)	inactive: -0.997
CN1CCC[C@H]1c1cccnc1 (plate: M 13-14)	inactive: 0.299
CCCC(C(=O)OCCN(CC)CC)(c1ccccc1)c1ccccc1 (plate: M 7-8)	inactive: -0.192
COc1c(OC)c2occc2c2oc(=O)ccc12 (plate: M 17-18)	inactive: -0.316
CC(C)=CCC/C(C)=C/COc1ccc2ccc(=O)oc2c1 (plate: M 19-20)	inactive: -0.139
Clc1ccc(COC(Cn2ccnc2)c2ccc(Cl)cc2Cl)cc1 (stereo not drawn) (plate: M 7-8)	inactive: -0.509
NC(=O)NO (plate: M 3-4)	inactive: 0.112
Clc1ccccc1C(c1ccccc1)(c1ccccc1)n1ccnc1 (plate: M 1-2)	inactive: 0.237
CO/N=C1\CN(c2nc3c(cc2F)c(=O)c(C(=O)O)cn3C2CC2)CC1CN (stereo not drawn) (plate: M 11-12)	inactive: 0.273
CCCCC(CC)COC(=O)c1ccccc1O (stereo not drawn) (plate: M 13-14)	inactive: 0.205
C=C1CC=C(C)CC[C@@H]2[C@@H]1CC2(C)C (plate: M 17-18)	inactive: 0.459
CCN(CCCc1ccccc1)CCCc1ccccc1 (plate: M 1-2)	inactive: 0.265
CC(=O)[C@H]1CC[C@H]2[C@@H]3CC=C4C[C@@H](OC(=O)CCC(=O)O)CC[C@]4(C)[C@H]3CC[C@]12C (plate: M 11-12)	inactive: 0.133
C[C@H]1CC[C@@H](C(C)(C)O)CC2=C1CC[C@@H]2C (plate: M 21-22)	inactive: 0.241
CC[C@]1(O)C[C@@H]2CN(CCc3c([nH]c4ccccc34)[C@@](C(=O)OC)(c3cc4c(cc3OC)N(C)[C@H]3[C@@](O)(C(=O)OC)[C@H](OC(C)=O)[C@]5(CC)C=CCN6CC[C@]43[C@@H]65)C2)C1 (plate: M 5-6)	inactive: -0.73

SMILES	tryptophan fluorescence intensity z-score
O=C(O)c1cc(O)c(O)c(O)c1 (plate: M 1-2)	inactive: 0.258
CCN(CC)C(=O)N1CCN(C)CC1 (plate: M 1-2)	inactive: 0.0567
O=P(O)(O)C(O)(Cc1cccnc1)P(=O)(O)O (plate: M 11-12)	inactive: -0.458
O=C(O)/C=C/C=C/c1ccc2c(c1)OCO2 (plate: M 21-22)	inactive: 0.64
CC(C)CCC[C@@H](C)[C@H]1CC[C@H]2[C@@H]3CC=C4C[C@@H](O)CC[C@]4(C)[C@H]3CC[C@]12C (plate: M 5-6)	inactive: -0.139
CCCCCC1C(=O)CCC1CC(=O)O (stereo not drawn) (plate: M 21-22)	inactive: 0.16
CN(C)CCC(c1ccccc1)c1ccccn1 (stereo not drawn) (plate: M 3-4)	inactive: -0.319
C=CC(C1=CC(=O)C(OC)=CC1=O)c1ccc(O)cc1 (stereo not drawn) (plate: M 15-16)	inactive: -0.695
O=C(O)c1cc(=O)c2c(OCC(O)COc3cccc4oc(C(=O)O)cc(=O)c34)cccc2o1 (plate: M 1-2)	inactive: 0.411
Nc1nc(=O)c2c([nH]1)NCC(CNc1ccc(C(=O)N[C@@H](CCC(=O)O)C(=O)O)cc1)N2C=O (stereo partly drawn) (plate: M 3-4)	inactive: 0.0628
NC[C@H]1O[C@H](O[C@H]2[C@@H](O[C@@H]3O[C@H](CO)[C@@H](O)[C@H]3O)[C@@H](O)[C@H](N)C[C@@H]2N)[C@H](N)[C@@H](O)[C@@H]1O (plate: M 19-20)	inactive: 0.572
CCCCOc1ccc(CC(=O)NO)cc1 (plate: M 23-24)	inactive: 0.308
CC(=O)OC(C)C[N+](C)(C)C (stereo not drawn) (plate: M 3-4)	inactive: -0.473
C=CCc1ccccc1OCC(O)CNC(C)C (stereo not drawn) (plate: M 13-14)	inactive: 0.566
NC[C@H]1CC[C@H](C(=O)O)CC1 (plate: M 7-8)	inactive: -0.129
Oc1c(Cl)cc(Cl)cc1Sc1cc(Cl)cc(Cl)c1O (plate: M 1-2)	inactive: -0.133
Cc1ccc(O)c([C@H](CCN(C(C)C)C(C)C)c2ccccc2)c1 (plate: M 9-10)	inactive: -0.2
CCCCC[C@H](CC(=O)NO)C(=O)N[C@H](C(=O)N1CCC[C@H]1CO)C(C)C (plate: M 15-16)	inactive: 0.609
CC(=O)OCC(=O)[C@@]1(O)CC[C@H]2[C@@H]3CCC4=CC(=O)C=C[C@]4(C)[C@H]3[C@@H](O)C[C@@]21C (plate: M 5-6)	inactive: 0.0105
C[C@]12CCC(=O)C=C1CC[C@@H]1[C@@H]2[C@@H](O)C[C@@]2(C)[C@H]1CC[C@]2(O)C(=O)COP(=O)(O)O (plate: M 3-4)	inactive: -0.446
C/C=C(\C)C(=O)O[C@@H]1c2c(ccc3ccc(=O)oc23)OC(C)(C)[C@@H]1OC(C)=O (plate: M 19-20)	inactive: 0.106

Part of the list above, comma-delimited:
SMILES,tryptophan fluorescence intensity z-score
Nc1nc(=O)c2c([nH]1)NCC(CNc1ccc(C(=O)N[C@@H](CCC(=O)O)C(=O)O)cc1)N2C=O (stereo partly drawn) (plate: M 3-4),inactive: 0.0628
NC[C@H]1O[C@H](O[C@H]2[C@@H](O[C@@H]3O[C@H](CO)[C@@H](O)[C@H]3O)[C@@H](O)[C@H](N)C[C@@H]2N)[C@H](N)[C@@H](O)[C@@H]1O (plate: M 19-20),inactive: 0.572
CCCCOc1ccc(CC(=O)NO)cc1 (plate: M 23-24),inactive: 0.308
